# Primary screen of a compound library

Amino acid sequences for entries named in this document (tags omitted).
UniProt P9WPC5, whole entry: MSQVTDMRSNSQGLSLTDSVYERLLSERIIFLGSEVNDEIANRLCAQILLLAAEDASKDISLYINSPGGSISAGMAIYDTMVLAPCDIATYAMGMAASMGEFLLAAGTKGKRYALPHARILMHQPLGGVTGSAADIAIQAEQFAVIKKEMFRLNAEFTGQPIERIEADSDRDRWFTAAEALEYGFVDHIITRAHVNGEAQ
UniProt P9WPC3, whole entry partner: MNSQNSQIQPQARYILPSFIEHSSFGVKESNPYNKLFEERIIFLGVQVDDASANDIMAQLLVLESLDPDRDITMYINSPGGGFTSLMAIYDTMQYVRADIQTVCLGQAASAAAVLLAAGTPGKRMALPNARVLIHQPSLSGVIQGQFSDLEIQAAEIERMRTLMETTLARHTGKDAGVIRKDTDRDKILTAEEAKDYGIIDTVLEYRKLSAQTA

Source: ChEMBL document CHEMBL3988442, “University of Dundee, Small-Polar-MMV Screening Library” (2021).

Values are the deposited “Percent Effect”, in %. The controls that fix the scale are not given in the record; negative values are as filed. This is an unselected part of the compounds tested. A dash means the value is not listed here; it may have been measured.

Toxoplasma: 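Assay of Toxoplasma gondii numbers, read through their beta-galactosidase reporter with a colour substrate. Tested at 10 µM. Higher reads as fewer parasites (inferred from which compounds were picked for retests). About 67,000 compounds were tested under these conditions; 0.38% (about 260) showed 50% or more at least once.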
ClpP1P2: 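Protease assay of ClpP1P2, read by the AMC dye that it sets free. Target: ClpP1P2, Mycobacterium tuberculosis (UniProt P9WPC5 and UniProt P9WPC3). Compounds at 50 µM. Direction is inferred from only a few compounds that gave an IC50; most scored high, so higher reads as stronger inhibition. Most other retested compounds had strongly negative values. About 69,000 compounds were tested under these conditions; 0.015% (about 10) showed 50% or more at least once.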

compound,Toxoplasma,ClpP1P2
CN(C)c1cnnc(N2CCN(C(=O)CCC3CCCCC3)CC2)c1,-4.762%,-4.395%
c1ccc(-c2nc(CN3CCOC(Cn4cccn4)C3)co2)cc1 (configuration not stated),-18.73%,-3.939%
Cc1cc(C)c(Cn2cncn2)cc1CN1CC[C@H]2CC[C@@H](C1)N2,-,8.085%
CCN1CC2(CCN(C(=O)c3nc4cc(C)ccn4c3F)CC2)CC1=O,3.543%,11.46%
O=C(NCc1nc(C2CC2)no1)N1CCOC(c2cccc(F)c2)C1 (configuration not stated),3.463%,-3.277%
Cc1nc(CN2CCCC(NCc3cccc(C(N)=O)c3)C2)no1 (configuration not stated),1.308%,-23.42%
CCc1nc(C(=O)N2CCN(CC)CC2)nn1-c1ccccc1Cl,-6.25%,12.01%
CCN1CCC(CC(=O)N2CCCCC2CCn2cccn2)CC1 (configuration not stated),-0.6866%,-0.9676%
COc1ccccc1C(N)CC(C)C (configuration not stated),-3.975%,-13.95%
CC(C)CCN1CCc2[nH]nc(C(=O)N3CC=CC3)c2C1,-,-3.525%
c1ccc(OCCNC2CCN(c3ncccn3)CC2)cc1,16.14%,7.94%
Cn1ccnc1-c1nccn1-c1cccc(CN2CCCC2)c1,-5.13%,-10.54%
CS(=O)(=O)NCc1cncc2c1CCN(C(=O)N1CCCC1)C2,-,-3.331%
CN(C(=O)Cc1ccc(NC(=O)NC2CCC2)cc1)c1ccccc1,0.553%,-8.67%
CC(=O)Nc1cccc(OCCNC(=O)N(C)Cc2ccncc2)c1,-4.302%,-1.227%
O=C(NCc1cccnc1)N1CCn2c(Cn3cccn3)cnc2C1,6.067%,1.537%
CC(C)NC(=O)N1CC[C@@H](N(C)C)[C@@H]1Cc1ccccc1,-,2.049%
CCOc1ccc(N(C)Cc2nc(C)c(C)o2)cc1,3.339%,-11.01%
COc1cc(CNc2nncs2)cc(OC)c1OC,-0.4725%,-2.98%
Cc1ccc(-c2nc(CN3CCc4cnc(C)nc4C3)no2)cc1,3.901%,-12.12%
Cc1nnc(NCc2ccc(F)cc2)o1,2.21%,5.148%
[H][C@@]12CS(=O)(=O)C[C@]1([H])N(Cc1ccc3nsnc3c1)CCN2CCOC,5.472%,-
Cc1cccc(CN2CCC3(CC2)CN(c2cccnc2)C(=O)CO3)n1,-,-5.015%
CC(C(=O)N(C)Cc1noc(C2CCC2)n1)N1CCc2ccccc2C1 (configuration not stated),13.62%,6.889%
O=C(COc1ccccc1NCc1ccoc1)N1CCOCC1,19.77%,4.017%
CC(CNC(=O)c1ccco1)N1CCc2sccc2C1 (configuration not stated),2.071%,13.8%
CNC(=O)CN([C@H]1C[C@H]2CCOC[C@H]2C1)S(=O)(=O)c1ccccc1,-,-4.489%
CC(C)N1C(=O)CO[C@H]2CCN(C(=O)c3ccc4c(c3)CCC4)CC[C@@H]21,-,-1.027%
COCCN1CCC2(CC1)CC(NCc1cncn1C)c1ccccc12.O=C(O)C(F)(F)F.O=C(O)C(F)(F)F (configuration not stated),-5.448%,-
Cc1cc2cccc(C(=O)N3CCOC(CCN(C)C)C3)c2o1 (configuration not stated),5.9%,-10.5%
Nc1cnc(-c2cccc3ccnn23)cn1,0.05294%,-2.113%
CCCOCC(=O)N1CCc2nc(NC)nc(C(=O)N3CCCC3)c2C1,-19.18%,-0.8115%
CCN(CC)C(=O)CSc1sc2c(O)cc(=O)[nH]c2c1C(N)=O,2.185%,1.554%
COc1cccc(CNC(=O)c2ccccc2-n2cc(CN)cn2)c1,2.964%,0.9478%
CS(=O)(=O)NC1CCN(C(=O)c2ccc(Br)o2)C1 (configuration not stated),-7.81%,-6.144%
COCCC(=O)N1CCC2(CCN(Cc3ccc(C)cc3)CC2)C1,-,-5.615%
Cc1csc(N2CCN(C(=O)CCNc3ncccn3)CC2)n1,17.29%,7.788%
Cc1cc(C)c(C(=O)N2CCC3(CCCNC3)C2)cc1C (configuration not stated),24.86%,3.739%
NCCC(=O)NCC1(O)CCCN(c2ccnc3cccnc23)C1 (configuration not stated),27.04%,-1.218%
Cc1cc(C(=O)N2CCCC3(CNC(=O)O3)C2)c2c(C)nn(C)c2n1 (configuration not stated),5.589%,-3.597%
Cc1nn(C)c(Cl)c1C1CCCN1C(=O)c1ccnc(N(C)C)c1 (configuration not stated),3.799%,-32.41%
CCS(=O)(=O)N1CCCC2(CCCN2Cc2cccc(Cl)c2)C1 (configuration not stated),-,-6.62%
CC(OCC1CC1)C(=O)Nc1cccc(C(=O)Nc2ccncc2)c1 (configuration not stated),2.633%,9.084%
CN(C)CCOCc1nnc2n1CCN(Cc1ccco1)C2,-,9.084%
CCCc1nc(C(=O)N2CCN(C(=O)c3ccc(OC)cc3)CC2)cs1,-2.101%,-12.71%
CN(C)C(=O)CN1CCC2(CCCN(Cc3cccn3C)C2)C1=O (configuration not stated),-,11.21%
Cc1nccn1CC1CCCN1S(=O)(=O)Cc1ccccc1F (configuration not stated),-,8.375%
CN(C)C[C@H]1OC[C@@H]2CCN(C(=O)NCc3cccc(F)c3)C[C@@H]21,-,6.787%
COC(=O)c1ccc(OC)c(OC23CCCN(CC2)C3)c1 (configuration not stated),-4.806%,-7.867%
O=c1[nH]c2csnc2c(=O)n1Cc1ccc(Br)cc1,5.791%,-1.201%
Cc1cn[nH]c1C1COCCN1S(=O)(=O)c1cn[nH]c1 (configuration not stated),15.23%,-0.6185%
CCn1ncnc1CN1CCc2[nH]cnc2C1CCc1ccccc1 (configuration not stated),3.728%,-3.741%
Cl.[H][C@@]12OCCC[C@]1([H])NC[C@H]2NC(=O)c1cnccn1,1.257%,-
Cc1nccc(CN2CCC(c3nnsc3S(C)(=O)=O)CC2)n1,-3.267%,2.569%
CCC(Nc1nnnn1-c1ccccc1)C(=O)NCc1cccs1 (configuration not stated),-4.648%,3.734%
O=C(Cc1ccon1)N(CCC(F)(F)F)C1CCCC1,2.519%,-13.14%
Cc1cc(NC(=O)CN2CCCC(Cn3cncn3)C2)on1 (configuration not stated),17.66%,-0.7942%
CC(=O)N1CCC2(CCCN(C(=O)CCN3CCCCC3)C2)C1 (configuration not stated),-18.4%,-13.75%
CCN1CCN(C)C(=O)C12CCN(C(=O)Cc1ccccn1)CC2.O=C(O)C(F)(F)F,10.92%,-
Cc1ccc(CNCC(C)Oc2ccccn2)cc1.Cl (configuration not stated),-4.518%,-
CC(=O)N1CCCn2nc(CNS(=O)(=O)N3CCCCCC3)cc2C1,-1.777%,-21.26%
O=C(NCCCN1CCN(c2ncccn2)CC1)NCC1CCOC1 (configuration not stated),-4.421%,3.25%
COCc1cc(C[C@@H]2CC[C@H](O)[C@@H](CNCC(C)C)O2)no1,-6.718%,-12.38%
O=S(=O)(C1CC1)N1CCOC2(CCCN(c3cccc(F)c3)C2)C1 (configuration not stated),3.825%,1.139%
Cc1cc(C(=O)N2CCCC(c3nccn3Cc3cscn3)C2)on1 (configuration not stated),1.622%,-6.787%
Cc1cc(CN(C)C(=O)NC2CCN(Cc3ccccn3)CC2)no1,-28.98%,-23.5%
CCc1ncnc2c1CCN(S(=O)(=O)CC)CC2,-24.22%,-3.789%
Cc1cccc2nc(CNC(=O)N3CCC(OCC4CC4)CC3)cn12,13.5%,-10.93%
CC(C)n1cc(CN2CCCN(C(=O)C(C)n3cncn3)CC2)cn1 (configuration not stated),-2.855%,9.779%
COC(=O)N1CCCN(C(=O)NCc2ccc(Cl)s2)CC1,10.52%,15.57%
CC(=O)N1CC(c2ccnc(Nc3nccs3)n2)C1,-0.4932%,5.387%

8 of the entries, repeated:

* COc1cccc(CNC(=O)c2ccccc2-n2cc(CN)cn2)c1 | Toxoplasma: 2.964%; ClpP1P2: 0.9478%
* CCc1ncnc2c1CCN(S(=O)(=O)CC)CC2 | Toxoplasma: -24.22%; ClpP1P2: -3.789%
* c1ccc(-c2nc(CN3CCOC(Cn4cccn4)C3)co2)cc1 (configuration not stated) | Toxoplasma: -18.73%; ClpP1P2: -3.939%
* O=S(=O)(C1CC1)N1CCOC2(CCCN(c3cccc(F)c3)C2)C1 (configuration not stated) | Toxoplasma: 3.825%; ClpP1P2: 1.139%
* Cc1cc2cccc(C(=O)N3CCOC(CCN(C)C)C3)c2o1 (configuration not stated) | Toxoplasma: 5.9%; ClpP1P2: -10.5%
* CCCOCC(=O)N1CCc2nc(NC)nc(C(=O)N3CCCC3)c2C1 | Toxoplasma: -19.18%; ClpP1P2: -0.8115%
* CCS(=O)(=O)N1CCCC2(CCCN2Cc2cccc(Cl)c2)C1 (configuration not stated) | ClpP1P2: -6.62%
* COc1cc(CNc2nncs2)cc(OC)c1OC | Toxoplasma: -0.4725%; ClpP1P2: -2.98%